Data source: PubChem BioAssay AID1259272 (Sanger Institute, 2017)

Purpose: 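Kinase knock-downs lethal to colorectal cancer cells, with or without anchor drugs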 (primary screen)
Cell system: SW1116 human colorectal cancer cells
Reagents: siRNA pool against human genes
Challenge: anchor drugs BYL719 (1 µM), cetuximab (5 µg/ml) or trametinib (10 nM), or DMSO vehicle; exposure length not given
Detection: 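Cell survival as a fraction of wells given a non-targeting pool, averaged over replicates; robust z-score without drug; synergy score for each of BYL719, cetuximab and trametinib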
Scale: viability z-score, no drug: higher = more cells remaining; strongly negative means essential gene; viability, no drug: higher = more viable cells
Units: viability, no drug in fraction of control
Call rule: 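a robust z-score under -3 with siRNA and no drug marks the gene essential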
Meaning of the calls: active = essential (knock-down alone); inactive = no change
This is an unselected part of 794 reagents tested. 7 of them (0.88%) count as active. 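Essential calls reflect knock-down without drug only, not synergy with drugs; drug exposure length not given.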 Entries without a mark were called inactive. No viability above 1 is reported: the scale is capped. Not all columns of the deposit are shown. The record does not give: the amount of reagent, the time to read-out.

BMPR2 | viability z-score, no drug = 0.842; viability, no drug = 1
MAP3K11 | viability z-score, no drug = 0.143; viability, no drug = 0.926
PDK2 | viability z-score, no drug = 0.0381; viability, no drug = 0.914
PMVK | viability z-score, no drug = 0.842; viability, no drug = 1
NTRK3 | viability z-score, no drug = 0.842; viability, no drug = 1
TCF7L2 | viability z-score, no drug = 0.842; viability, no drug = 1
WEE1 | viability z-score, no drug = -2.68; viability, no drug = 0.625
CDKN2D | viability z-score, no drug = -1.5; viability, no drug = 0.751
ROR1 | viability z-score, no drug = 0.698; viability, no drug = 0.985
MAPK12 | viability z-score, no drug = 0.842; viability, no drug = 1
CAMK4 | viability z-score, no drug = 0.842; viability, no drug = 1
WIPF1 | viability z-score, no drug = -0.196; viability, no drug = 0.889
CAMK1G | viability z-score, no drug = 0.404; viability, no drug = 0.953
MAPKAPK2 | viability z-score, no drug = -1.84; viability, no drug = 0.715
CDC42BPA | viability z-score, no drug = -1.31; viability, no drug = 0.771
TCF12 | viability z-score, no drug = -0.725; viability, no drug = 0.833
NUCKS1 | viability z-score, no drug = 0.842; viability, no drug = 1
LMTK1 | viability z-score, no drug = -0.532; viability, no drug = 0.854
PKN3 | viability z-score, no drug = -0.0969; viability, no drug = 0.9
ERBB2 | viability z-score, no drug = 0.842; viability, no drug = 1
FGFR1 | viability z-score, no drug = 0.842; viability, no drug = 1
PRKG1 | viability z-score, no drug = 0.274; viability, no drug = 0.94
PTK2 | viability z-score, no drug = -0.0937; viability, no drug = 0.9
MED24 | viability z-score, no drug = 0.842; viability, no drug = 1
LIMK2 | viability z-score, no drug = 0.842; viability, no drug = 1
HUS1 | viability z-score, no drug = 0.842; viability, no drug = 1
DYRK2 | viability z-score, no drug = -0.225; viability, no drug = 0.886
PKIA | viability z-score, no drug = -1.67; viability, no drug = 0.733

Only “viability z-score, no drug”, for 2 of the entries above:
PTK2: -0.0937
MED24: 0.842
